According to PubChem BioAssay AID493014 (National Center for Advancing Translational Sciences (NCATS), 2011):
The other results are listed elsewhere or left out. The main result of the screen is listed elsewhere. These columns were measured beside it and carry no call. The list favours compounds with an active or inconclusive main result. Words in brackets tell the shape of the fitted curve; partial curves, single points and poor fits give uncertain potencies.

Assay: qHTS Assay to Find Inhibitors of Chronic Active B-Cell Receptor Signaling
Conditions: ABC-DLBCL IkBa-CBG/CBR reporter, luminescence ratio (green luciferase fused to IkBa over red control in TMD8 lymphoma cells), 4 h
Procedure, shortened: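 Doxycycline induced both beetle luciferases in TMD8 lymphoma cells; IKK-driven degradation limits the IkappaBalpha-fused green signal, while red luminescence normalises for cell number and nonspecific effects. Compounds tested up to 46 uM, 4 hrs.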

[1] = measured here: CBR red luminescence, cell number
[2] = measured here: IkBa-CBG green luminescence

SMILES | AC50 [1] | AC50 [2]
Cn1c2ccccc2c2c(C(=O)NCC3CCCO3)cn(C3CCCC3)c(=O)c21 (stereo unspecified) | 0.651 µM [falling, full curve, poor fit] | –
Cc1ccc(NS(=O)(=O)c2ccc(N3C(=O)CCC3=O)cc2)cc1 | 2.06 µM [rising, partial curve, poor fit] | –
COc1ccc(N(CC(=O)NCc2ccccc2)C(=O)CCC(=O)Nc2cc(C)ccn2)c(OC)c1 | 35.5 µM [falling, single point] | –
CCn1cc(Cl)c(C(=O)N2N=C3/C(=C/c4cccs4)CCCC3C2c2cccs2)n1 (stereo unspecified) | 7.31 µM [falling, partial curve] | –
CN(c1ccccc1)S(=O)(=O)c1cccc(NC(=O)COc2ccccc2)c1 | 29.1 µM [falling, single point] | –
CCOC(=O)C1=C(N)n2c(s/c(=C\c3ccco3)c2=O)=C(C(=O)OCC)C1c1ccco1 (stereo unspecified) | 12.6 µM [rising, single point] | –
CCCCc1ccc(N=N/C(C(=O)Nc2ccc(NC(C)=O)cc2OC)=C(/C)O)cc1 | 6.31 µM [falling, single point] | –
COc1ccc(/C=C(\C#N)C(=O)c2c(C)[nH]c3ccccc23)cc1OC | 20.6 µM [falling, single point] | –
COc1ccc(NC(=O)CCCN2C(=O)CN(C)C2=O)c(OC)c1 | 29.1 µM [rising, partial curve, poor fit] | –
CCOC(=O)/C=C/C(=O)Nc1ccc(S(=O)(=O)N2CCc3ccccc32)cc1 | 10 µM [falling, single point] | –
O=C(/C=C/c1ccc(OC(F)F)cc1)OCC(=O)N1CCN(C(=O)c2ccco2)CC1 | 29.1 µM [rising, single point] | –
CCC1=Nc2cc(C(=O)NCCCOC(C)C)ccc2Sc2ccc(C)cc21 | 5.62 µM [rising, full curve] | 2.82 µM [falling, full curve]
Cc1noc(C)c1CSCC(=O)Nc1nc2ccccc2s1 | 22.4 µM [falling, single point] | –
COc1ccc(-c2cnnn2-c2ccc(NC(=O)c3ccc(S(=O)(=O)N4CCCCC4)cc3)cc2)cc1OC | – | 2.59 µM [falling, full curve]
Cc1cnc(NC(=O)Cc2ccccc2Cl)s1 | 2.82 µM [falling, partial curve, poor fit] | –
COc1cccc(C(=O)Nc2nnc(-c3ccccc3)s2)c1OC | 2.82 µM [falling, partial curve, poor fit] | –
CN1C2C=C(N(CCc3c[nH]c4ccccc34)C(=O)c3ccc(Cl)cc3)CC1CC2 (stereo unspecified) | 25.1 µM [falling, single point] | –
CCOC(=O)C/C(C)=N/NC(=O)Nc1ccccc1 | 2.59 µM [rising, single point] | –
COc1ccc(C)cc1NC(=O)C(OC(=O)c1cnc(C)cn1)c1ccccc1 (stereo unspecified) | 13 µM [rising, partial curve, poor fit] | –
Cc1sc(NC(=O)c2ccco2)c(CN2CCN(c3ccccn3)CC2)c1C | 14.1 µM [falling, single point] | –

SMILES | AC50 [1] | AC50 [2]
CCN(CCCNC(=O)CCCN1C(=O)COc2ccc(C)cc21)c1cccc(C)c1 | 15.8 µM [falling, single point] | –
CC(=O)Nc1ccc(NC(=O)C(C)OC(=O)CN(C)S(=O)(=O)c2ccc(Cl)cc2)cc1 (stereo unspecified) | 4.11 µM [rising, single point] | –
CCOc1cc(/C=N/O)ccc1OCc1ccc(F)cc1 | 1.84 µM [rising, full curve] | –
COc1ccccc1N(CC(=O)Nc1cc(C)on1)S(=O)(=O)c1ccc(Cl)cc1 | 0.326 µM [falling, full curve, poor fit] | –
COC(=O)c1c(C(=O)OC)c2n(c1C)CCS2 | 25.1 µM [falling, single point] | –
CC(=O)O/N=C(\N)c1cnn2c(C(F)(F)F)cc(C(F)(F)F)nc12 | 25.1 µM [rising, single point] | –
COc1cc(CN2CCC(C(=O)NC3CCCC3)CC2)ccc1O | 20.6 µM [rising, partial curve, poor fit] | –
Cc1ccc(S(=O)(=O)N(Cc2ccc(C(F)(F)F)cc2)C(=O)N2CCN(C)CC2)cc1 | 3.66 µM [rising, partial curve, poor fit] | –
O=C(O)COn1c(-c2ccccc2)nc2ccc(Cl)cc21 | 8.91 µM [falling, partial curve] | –
COc1ccc(/C(O)=C2/C(=O)C(=O)N(Cc3cccnc3)C2c2ccncc2)cc1F (stereo unspecified) | 2.31 µM [rising, full curve, poor fit] | –
Cc1cccc(Cl)c1NC(=S)N1CCN(c2ccc([N+](=O)[O-])cn2)CC1 | 7.94 µM [falling, partial curve, poor fit] | –
Cc1ccc(-n2c(Cc3cccs3)nnc2SCC(=O)Nc2ccc(S(N)(=O)=O)cc2)cc1 | 8.91 µM [falling, partial curve, poor fit] | –
O=C(Nc1ccc(F)cc1)Nc1ccc(NC(=O)c2ccccc2O)cc1 | 0.1 µM [rising, full curve, poor fit] | –
COc1ccc(/C=C2\Sc3ccc(C(=O)NCC4CCCO4)cc3N(C)C2=O)cc1 (stereo unspecified) | 20 µM [rising, single point] | –
COC(=O)CC1(C(=O)OC)Oc2ccc(Br)cc2C(=O)N1c1cccc(Cl)c1Cl (stereo unspecified) | 20 µM [falling, single point] | –
CC(Sc1nc2scc(-c3ccccc3)c2c(=O)[nH]1)C(=O)NC(N)=O (stereo unspecified) | 1.78 µM [falling, full curve] | –
COc1ccc(Nc2ccc3c(c2)=NC2(CCCCC2)[N+]=3[O-])cc1 | 2 µM [falling, full curve] | –
O=C(Nc1ccccc1C(=O)Nc1ccccc1)c1ccco1 | 0.708 µM [falling, full curve, poor fit] | –
CC(C)NC(=O)c1ccc(-c2ccccc2C(F)(F)F)o1 | 2.91 µM [rising, single point] | –
COc1cc2c(cc1OC)C(COc1ccc(F)cc1)N(C(C)=O)CC2 (stereo unspecified) | 35.5 µM [falling, single point] | –

Twelve compounds already listed, ordered by molar mass, ascending.
SMILES | AC50 [1] | AC50 [2]
COC(=O)c1c(C(=O)OC)c2n(c1C)CCS2 | 25.1 µM [falling, single point] | –
CC(C)NC(=O)c1ccc(-c2ccccc2C(F)(F)F)o1 | 2.91 µM [rising, single point] | –
O=C(Nc1ccccc1C(=O)Nc1ccccc1)c1ccco1 | 0.708 µM [falling, full curve, poor fit] | –
COc1ccc(Nc2ccc3c(c2)=NC2(CCCCC2)[N+]=3[O-])cc1 | 2 µM [falling, full curve] | –
CC(=O)O/N=C(\N)c1cnn2c(C(F)(F)F)cc(C(F)(F)F)nc12 | 25.1 µM [rising, single point] | –
COc1cc2c(cc1OC)C(COc1ccc(F)cc1)N(C(C)=O)CC2 (stereo unspecified) | 35.5 µM [falling, single point] | –
Cc1cccc(Cl)c1NC(=S)N1CCN(c2ccc([N+](=O)[O-])cn2)CC1 | 7.94 µM [falling, partial curve, poor fit] | –
COc1ccc(/C(O)=C2/C(=O)C(=O)N(Cc3cccnc3)C2c2ccncc2)cc1F (stereo unspecified) | 2.31 µM [rising, full curve, poor fit] | –
CCN(CCCNC(=O)CCCN1C(=O)COc2ccc(C)cc21)c1cccc(C)c1 | 15.8 µM [falling, single point] | –
COc1ccccc1N(CC(=O)Nc1cc(C)on1)S(=O)(=O)c1ccc(Cl)cc1 | 0.326 µM [falling, full curve, poor fit] | –
Cc1ccc(S(=O)(=O)N(Cc2ccc(C(F)(F)F)cc2)C(=O)N2CCN(C)CC2)cc1 | 3.66 µM [rising, partial curve, poor fit] | –
Cc1ccc(-n2c(Cc3cccs3)nnc2SCC(=O)Nc2ccc(S(N)(=O)=O)cc2)cc1 | 8.91 µM [falling, partial curve, poor fit] | –
